Data on six molecules can be found in publication PMC10344785.

By UniProt entry, the sequences of proteins in these tests, tags left out.
UniProt Q8VD65: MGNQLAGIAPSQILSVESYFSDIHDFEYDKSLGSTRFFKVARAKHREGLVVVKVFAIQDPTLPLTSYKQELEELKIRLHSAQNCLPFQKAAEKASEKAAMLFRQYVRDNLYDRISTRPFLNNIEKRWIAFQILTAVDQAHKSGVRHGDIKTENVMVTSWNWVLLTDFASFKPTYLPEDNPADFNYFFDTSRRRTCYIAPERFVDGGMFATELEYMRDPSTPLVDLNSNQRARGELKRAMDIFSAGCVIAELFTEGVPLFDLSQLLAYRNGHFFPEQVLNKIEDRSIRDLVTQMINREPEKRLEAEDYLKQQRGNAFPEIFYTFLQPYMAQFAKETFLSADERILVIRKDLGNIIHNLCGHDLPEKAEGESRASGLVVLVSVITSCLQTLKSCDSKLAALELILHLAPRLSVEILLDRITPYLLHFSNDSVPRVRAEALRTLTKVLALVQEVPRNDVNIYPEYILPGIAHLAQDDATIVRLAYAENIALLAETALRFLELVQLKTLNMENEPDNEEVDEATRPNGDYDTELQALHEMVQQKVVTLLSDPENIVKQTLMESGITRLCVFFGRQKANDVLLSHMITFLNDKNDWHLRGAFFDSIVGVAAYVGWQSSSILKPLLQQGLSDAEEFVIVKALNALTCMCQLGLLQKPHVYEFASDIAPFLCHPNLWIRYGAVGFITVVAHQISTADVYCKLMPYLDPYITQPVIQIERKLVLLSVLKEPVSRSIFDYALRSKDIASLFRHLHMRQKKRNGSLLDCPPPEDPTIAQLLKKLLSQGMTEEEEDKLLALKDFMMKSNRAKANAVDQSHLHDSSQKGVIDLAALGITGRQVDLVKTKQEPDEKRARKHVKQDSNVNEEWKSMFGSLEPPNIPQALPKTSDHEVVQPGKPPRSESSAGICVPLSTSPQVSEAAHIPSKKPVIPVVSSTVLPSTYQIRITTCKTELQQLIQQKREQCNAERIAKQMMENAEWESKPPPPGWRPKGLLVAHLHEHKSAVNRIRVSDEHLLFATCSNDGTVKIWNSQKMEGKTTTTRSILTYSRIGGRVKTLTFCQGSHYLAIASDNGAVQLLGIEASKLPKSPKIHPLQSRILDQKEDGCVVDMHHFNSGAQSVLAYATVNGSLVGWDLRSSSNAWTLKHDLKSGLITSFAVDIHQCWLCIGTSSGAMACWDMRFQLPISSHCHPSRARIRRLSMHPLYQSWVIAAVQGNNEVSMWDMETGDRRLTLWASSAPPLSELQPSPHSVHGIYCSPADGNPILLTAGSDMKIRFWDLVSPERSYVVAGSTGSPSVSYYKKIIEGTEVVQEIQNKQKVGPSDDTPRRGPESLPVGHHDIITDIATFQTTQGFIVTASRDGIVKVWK
UniProt Q8NEB9: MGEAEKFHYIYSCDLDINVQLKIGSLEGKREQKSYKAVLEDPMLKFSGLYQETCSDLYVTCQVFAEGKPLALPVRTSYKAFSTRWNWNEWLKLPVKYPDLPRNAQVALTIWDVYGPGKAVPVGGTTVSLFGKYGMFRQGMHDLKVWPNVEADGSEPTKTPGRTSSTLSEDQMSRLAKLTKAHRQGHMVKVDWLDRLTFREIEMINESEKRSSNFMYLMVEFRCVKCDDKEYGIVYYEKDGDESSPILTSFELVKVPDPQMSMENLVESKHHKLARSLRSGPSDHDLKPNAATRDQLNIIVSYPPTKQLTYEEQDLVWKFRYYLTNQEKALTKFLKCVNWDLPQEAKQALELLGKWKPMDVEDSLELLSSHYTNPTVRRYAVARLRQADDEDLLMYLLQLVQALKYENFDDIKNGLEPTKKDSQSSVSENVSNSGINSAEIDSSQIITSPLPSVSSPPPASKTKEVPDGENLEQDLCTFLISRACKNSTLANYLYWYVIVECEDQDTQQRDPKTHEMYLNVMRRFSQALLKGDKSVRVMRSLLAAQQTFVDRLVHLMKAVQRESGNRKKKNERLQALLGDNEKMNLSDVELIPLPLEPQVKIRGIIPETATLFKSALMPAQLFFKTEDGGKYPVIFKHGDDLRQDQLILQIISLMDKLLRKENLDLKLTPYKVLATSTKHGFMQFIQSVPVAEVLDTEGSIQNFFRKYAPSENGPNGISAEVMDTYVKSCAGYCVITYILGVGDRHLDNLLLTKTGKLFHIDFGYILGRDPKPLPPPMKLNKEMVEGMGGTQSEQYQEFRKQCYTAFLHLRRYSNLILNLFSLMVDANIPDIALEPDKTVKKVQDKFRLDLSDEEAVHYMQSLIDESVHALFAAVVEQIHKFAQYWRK
UniProt Q9WTL8: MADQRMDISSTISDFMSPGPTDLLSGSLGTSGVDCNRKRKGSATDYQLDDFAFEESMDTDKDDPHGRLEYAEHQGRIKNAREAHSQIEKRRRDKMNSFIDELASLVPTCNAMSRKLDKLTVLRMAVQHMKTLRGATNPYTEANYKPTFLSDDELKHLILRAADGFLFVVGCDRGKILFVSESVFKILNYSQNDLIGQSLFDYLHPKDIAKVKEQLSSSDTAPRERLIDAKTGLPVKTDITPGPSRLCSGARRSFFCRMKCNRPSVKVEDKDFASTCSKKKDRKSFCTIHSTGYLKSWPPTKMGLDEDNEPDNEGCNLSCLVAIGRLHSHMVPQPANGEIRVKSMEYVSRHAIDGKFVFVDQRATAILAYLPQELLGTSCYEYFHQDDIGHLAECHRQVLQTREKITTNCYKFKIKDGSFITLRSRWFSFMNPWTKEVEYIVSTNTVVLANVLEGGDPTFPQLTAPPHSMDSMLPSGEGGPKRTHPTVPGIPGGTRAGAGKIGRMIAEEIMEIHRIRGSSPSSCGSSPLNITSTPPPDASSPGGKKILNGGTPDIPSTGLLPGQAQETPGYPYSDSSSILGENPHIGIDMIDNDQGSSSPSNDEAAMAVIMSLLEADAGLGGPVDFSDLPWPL
UniProt O00327: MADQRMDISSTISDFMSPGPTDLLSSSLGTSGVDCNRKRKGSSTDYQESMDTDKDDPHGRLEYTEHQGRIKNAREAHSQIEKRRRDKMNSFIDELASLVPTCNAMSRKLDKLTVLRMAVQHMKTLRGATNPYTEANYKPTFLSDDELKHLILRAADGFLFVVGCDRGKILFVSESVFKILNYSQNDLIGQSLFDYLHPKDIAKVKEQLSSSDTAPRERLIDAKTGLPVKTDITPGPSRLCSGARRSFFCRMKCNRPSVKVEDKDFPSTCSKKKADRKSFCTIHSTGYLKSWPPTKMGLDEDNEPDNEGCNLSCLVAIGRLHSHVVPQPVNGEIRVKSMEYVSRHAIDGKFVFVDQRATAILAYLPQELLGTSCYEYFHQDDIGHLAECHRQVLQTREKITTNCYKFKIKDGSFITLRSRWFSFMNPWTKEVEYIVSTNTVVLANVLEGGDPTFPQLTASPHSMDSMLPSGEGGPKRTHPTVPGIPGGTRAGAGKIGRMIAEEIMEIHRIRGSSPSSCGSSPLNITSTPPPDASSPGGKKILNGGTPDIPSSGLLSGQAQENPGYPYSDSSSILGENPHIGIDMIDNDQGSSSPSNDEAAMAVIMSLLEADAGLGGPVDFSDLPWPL
UniProt Q6PF93: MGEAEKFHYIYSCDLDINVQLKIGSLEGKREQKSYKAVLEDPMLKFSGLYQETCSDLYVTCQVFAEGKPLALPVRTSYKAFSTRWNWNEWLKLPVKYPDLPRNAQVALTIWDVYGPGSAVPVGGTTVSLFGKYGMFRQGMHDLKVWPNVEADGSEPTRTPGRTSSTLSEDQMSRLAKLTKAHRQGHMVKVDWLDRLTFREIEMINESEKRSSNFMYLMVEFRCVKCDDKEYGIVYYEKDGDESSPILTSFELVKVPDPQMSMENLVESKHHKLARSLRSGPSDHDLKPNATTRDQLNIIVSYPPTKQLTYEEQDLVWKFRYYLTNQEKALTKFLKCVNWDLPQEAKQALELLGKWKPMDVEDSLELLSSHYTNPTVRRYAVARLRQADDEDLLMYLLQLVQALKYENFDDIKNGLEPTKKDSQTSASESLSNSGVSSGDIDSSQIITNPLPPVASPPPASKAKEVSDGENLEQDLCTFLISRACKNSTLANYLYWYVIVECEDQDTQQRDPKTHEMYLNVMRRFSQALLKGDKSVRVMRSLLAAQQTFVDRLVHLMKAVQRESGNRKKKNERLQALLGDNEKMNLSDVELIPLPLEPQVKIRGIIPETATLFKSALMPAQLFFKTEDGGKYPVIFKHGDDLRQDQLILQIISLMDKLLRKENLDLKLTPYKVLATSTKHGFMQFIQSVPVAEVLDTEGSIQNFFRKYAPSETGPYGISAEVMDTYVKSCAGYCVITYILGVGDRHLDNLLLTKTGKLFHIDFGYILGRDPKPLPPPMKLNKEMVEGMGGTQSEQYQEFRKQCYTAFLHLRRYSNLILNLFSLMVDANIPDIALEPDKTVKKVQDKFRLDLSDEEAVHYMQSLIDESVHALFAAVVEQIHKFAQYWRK
UniProt P52294: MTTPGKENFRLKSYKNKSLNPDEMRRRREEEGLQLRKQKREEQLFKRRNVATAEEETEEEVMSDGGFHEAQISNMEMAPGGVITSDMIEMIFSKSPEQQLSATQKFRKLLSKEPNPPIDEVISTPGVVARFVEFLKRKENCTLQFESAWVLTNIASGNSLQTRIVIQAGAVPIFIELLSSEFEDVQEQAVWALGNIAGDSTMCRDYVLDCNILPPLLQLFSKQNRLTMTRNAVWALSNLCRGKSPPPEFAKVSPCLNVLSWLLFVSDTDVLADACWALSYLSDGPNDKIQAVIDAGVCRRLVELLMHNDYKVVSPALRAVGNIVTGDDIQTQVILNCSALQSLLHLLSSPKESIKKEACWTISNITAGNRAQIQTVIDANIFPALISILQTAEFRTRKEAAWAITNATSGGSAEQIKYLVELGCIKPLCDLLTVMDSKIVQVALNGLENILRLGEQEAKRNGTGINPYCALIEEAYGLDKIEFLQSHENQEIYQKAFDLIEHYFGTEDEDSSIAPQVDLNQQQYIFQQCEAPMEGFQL

No constants are given. Whether binding was seen depends on the method and setting. In cells and extracts the contact can be indirect. Some entries that bind do so weakly or less than the wild type.

Experiment [1] addresses endogenous Vps15 (mouse) (mouse (endogenous in MEFs and liver)) (UniProt Q8VD65). Description: co-IP; Vps15 immunoprecipitated from the soluble nuclear (and cytosol) fractions of MEF cells; endogenous proteins.
For experiment [2] the target is unchanged. Description: co-IP; Vps15 immunoprecipitated from the soluble nuclear fraction of liver tissue of WT male mice (ZT6; other ZT times in Extended Data Fig. 6e); endogenous proteins.
The next experiment addresses VPS34–Flag (UniProt Q8NEB9). Description: co-IP; anti-Flag immunoprecipitation of ectopically expressed Flag-tagged VPS15 (WT, Mut1, Mut2) or VPS34 from HEK293T cell extracts (1% NP-40 lysis buffer, Protein G Sepharose, four washes); blot for endogenous partners.
Experiment [3] has as its target endogenous Bmal1 (mouse) (mouse (endogenous in MEFs and liver)) (UniProt Q9WTL8). Description: co-IP; Bmal1 immunoprecipitated from total extracts of control and Vps15-depleted MEFs; blot for endogenous Clock.
For experiment [4] the target is unchanged. Description: co-IP; Bmal1 immunoprecipitated from the soluble nuclear fraction of livers of WT and Vps15LKO mice (ZT0, ZT12); blot for Clock; beads alone as control.
The target of experiment [5] is endogenous BMAL1 (human (endogenous in HEK293T)) (UniProt O00327). Description: co-IP; BMAL1 immunoprecipitated from total extracts of HEK293T cells transfected with increasing amounts of VPS15WT; blot for CLOCK and VPS15.
In experiment [6] the target is Bmal1-His full-length (Fl) protein (mouse) (UniProt Q9WTL8). Description: co-IP; Bmal1 immunoprecipitates from total extracts of HEK293T cells expressing His-tagged mouse Bmal1 truncated constructs; blot for CLOCK and VPS15.

Turning to “endogenous Vps34 (mouse) (from UniProt Q6PF93 1-887)”, the binding entry in experiment [1] and in experiment [2] was “binds” each time.

As for “endogenous importin α (IPOA5) (from UniProt P52294 1-538)”, the binding result with VPS34–Flag is given as “binds”.

As to “endogenous Bmal1 (mouse) (from UniProt Q9WTL8 1-632)”, the binding entry in experiment [1] and in experiment [2] was “binds” throughout.

B1: endogenous Clock (mouse) (protein, UniProt O08785 1-855)
chain: MVFTVSCSKMSSIVDRDDSSIFDGLVEEDDKDKAKRVSRNKSEKKRRDQFNVLIKELGSMLPGNARKMDKSTVLQKSIDFLRKHKETTAQSDASEIRQDWKPTFLSNEEFTQLMLEALDGFFLAIMTDGSIIYVSESVTSLLEHLPSDLVDQSIFNFIPEGEHSEVYKILSTHLLESDSLTPEYLKSKNQLEFCCHMLRGTIDPKEPSTYEYVRFIGNFKSLTSVSTSTHNGFEGTIQRTHRPSYEDRVCFVATVRLATPQFIKEMCTVEEPNEEFTSRHSLEWKFLFLDHRAPPIIGYLPFEVLGTSGYDYYHVDDLENLAKCHEHLMQYGKGKSCYYRFLTKGQQWIWLQTHYYITYHQWNSRPEFIVCTHTVVSYAEVRAERRRELGIEESLPETAADKSQDSGSDNRINTVSLKEALERFDHSPTPSASSRSSRKSSHTAVSDPSSTPTKIPTDTSTPPRQHLPAHEKMTQRRSSFSSQSINSQSVGPSLTQPAMSQAANLPIPQGMSQFQFSAQLGAMQHLKDQLEQRTRMIEANIHRQQEELRKIQEQLQMVHGQGLQMFLQQSNPGLNFGSVQLSSGNSNIQQLTPVNMQGQVVPANQVQSGHISTGQHMIQQQTLQSTSTQQSQQSVMSGHSQQTSLPSQTPSTLTAPLYNTMVISQPAAGSMVQIPSSMPQNSTQSATVTTFTQDRQIRFSQGQQLVTKLVTAPVACGAVMVPSTMLMGQVVTAYPTFATQQQQAQTLSVTQQQQQQQQQPPQQQQQQQQSSQEQQLPSVQQPAQAQLGQPPQQFLQTSRLLHGNPSTQLILSAAFPLQQSTFPPSHHQQHQPQQQQQLPRHRTDSLTDPSKVQPQ
As to B1, the binding entry in experiment [3] and in experiment [4] was “binds” in each case.

B2: CLOCK (protein, UniProt O15516 1-846)
chain: MLFTVSCSKMSSIVDRDDSSIFDGLVEEDDKDKAKRVSRNKSEKKRRDQFNVLIKELGSMLPGNARKMDKSTVLQKSIDFLRKHKEITAQSDASEIRQDWKPTFLSNEEFTQLMLEALDGFFLAIMTDGSIIYVSESVTSLLEHLPSDLVDQSIFNFIPEGEHSEVYKILSTHLLESDSLTPEYLKSKNQLEFCCHMLRGTIDPKEPSTYEYVKFIGNFKSLNSVSSSAHNGFEGTIQRTHRPSYEDRVCFVATVRLATPQFIKEMCTVEEPNEEFTSRHSLEWKFLFLDHRAPPIIGYLPFEVLGTSGYDYYHVDDLENLAKCHEHLMQYGKGKSCYYRFLTKGQQWIWLQTHYYITYHQWNSRPEFIVCTHTVVSYAEVRAERRRELGIEESLPETAADKSQDSGSDNRINTVSLKEALERFDHSPTPSASSRSSRKSSHTAVSDPSSTPTKIPTDTSTPPRQHLPAHEKMVQRRSSFSSQSINSQSVGSSLTQPVMSQATNLPIPQGMSQFQFSAQLGAMQHLKDQLEQRTRMIEANIHRQQEELRKIQEQLQMVHGQGLQMFLQQSNPGLNFGSVQLSSGNSSNIQQLAPINMQGQVVPTNQIQSGMNTGHIGTTQHMIQQQTLQSTSTQSQQNVLSGHSQQTSLPSQTQSTLTAPLYNTMVISQPAAGSMVQIPSSMPQNSTQSAAVTTFTQDRQIRFSQGQQLVTKLVTAPVACGAVMVPSTMLMGQVVTAYPTFATQQQQSQTLSVTQQQQQQSSQEQQLTSVQQPSQAQLTQPPQQFLQTSRLLHGNPSTQLILSAAFPLQQSTFPQSHHQQHQSQQQQQLSRHRTDSLPDPSKVQPQ
B2: the binding entry in experiment [5] was “binds”.

B3: CLOCK (in Bmal1 immunoprecipitates of Fig. 4i) (protein, UniProt O15516 1-846)
chain: B2 chain
With B3, the binding entry in experiment [6] is on record as “binds”.
